Laboratory results as given in the supplement of paper PMC3334620.
Over roughly 33,000 sequences, “E-score (-0.5 to 0.5)” has its median near -8e-05; the highest 2% begin near 0.23. The list shows a part of the results.

Molecular target: T1, Nrg2 (UniProt P38082)
T1 sequence: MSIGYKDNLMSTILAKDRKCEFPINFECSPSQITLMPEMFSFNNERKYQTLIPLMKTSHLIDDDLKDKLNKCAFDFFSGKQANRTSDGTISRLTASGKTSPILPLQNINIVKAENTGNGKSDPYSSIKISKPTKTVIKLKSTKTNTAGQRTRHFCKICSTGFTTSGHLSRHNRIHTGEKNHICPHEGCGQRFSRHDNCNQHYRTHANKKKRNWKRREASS
Experiment: PBM E-score (8-mer binding enrichment) (E-score (-0.5 to 0.5)); higher = stronger / more preferred TF binding
Conditions: protein concentration: 100 nM; construct: GST-full length
Method in brief: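 Full-length yeast transcription factors or their DNA-binding domains, GST-tagged and expressed with PURExpress, were applied at about 100-200 nM to universal all-10-mer Agilent arrays. These arrays had been made double-stranded by primer extension on fresh or once-stripped slides. Detection used fluorescent anti-GST, normalisation used masliner, and E-scores for ungapped eight-base words pooled with reverse complements came from the Universal PBM Analysis Suite.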

Row | Sequence | PBM E-score
1 | ATTCTGGC | 0.0275
2 | AAAAATCC | 0.026
3 | ACGTGAAG | -0.205
4 | ATGAGCAC | -0.108
5 | CAGCGAGA | 0.052
6 | CCACGTAC | -0.143
7 | AGCTATAA | -0.0113
8 | CGGGGAAG | -0.0844
9 | CTTTTTCA | -0.105
10 | AGATATAA | 0.202
11 | ATCGTTCA | -0.013
12 | CCAAGACC | -0.0194
13 | CTAAAGAC | -0.118
14 | CCCTAAGA | 0.00133
15 | AACCTATT | 0.0161
16 | AGGGAACG | -0.057
17 | ACTGATTG | -0.035
18 | TCAGTGAA | 0.103
19 | ACCTGGCG | -0.306
20 | ATCCACCC | 0.0829
21 | CCATGATC | -0.0843
22 | CAACTGCC | 0.09
23 | GGCCTAAC | 0.0899
24 | GCTAGGGA | -0.047
25 | CTTTGGCC | 0.0181

Row | Sequence | PBM E-score
26 | CGTTTGGA | 0.117
27 | CACTACAC | 0.0145
28 | TAACCGGA | -0.0155
29 | AAGCTGCG | 0.111
30 | CGGGCATA | -0.0878
31 | TCAACCAA | -0.0548
32 | AATGAGAC | -0.141
33 | GTGGTTCA | 0.221
34 | TGATGTAA | 0.0123
35 | ACCTTGAT | 0.183
36 | GAGTAAAC | -0.0581
37 | AGCTCGGG | 0.0409
38 | GTTAGAAC | 0.0227
39 | ATTACGTA | 0.0311
40 | GCGATGTA | 0.0197
41 | AATCAGTA | 0.0698
42 | AATGCTTC | 0.0333
43 | AGTCTGTG | -0.167
44 | ACCTCTGC | -0.132
45 | GGACGTGA | -0.144
46 | AGTACCAG | 0.0651
47 | AGCATTCC | -0.0069
48 | CAAACCTA | 0.0175
49 | CAACATAG | 0.0555
50 | CTTTTTTA | -0.0708

Row | Sequence | PBM E-score
51 | TTACCGAA | 0.146
52 | ACCTACTA | -0.121
53 | CTATCACA | 0.0988
54 | GCTTACCA | 0.0539
55 | ACTGTGAG | 0.0562
56 | ATAGGATC | -0.0324
57 | ATTATGCG | 0.266
58 | TGATATCA | 0.0655
59 | GCGAACAA | 0.322
60 | ACTGGCCC | 0.0932
61 | AATGTGGG | 0.0782
62 | CCGGGGTA | -0.145
63 | CCAGGGGG | -0.186
64 | AACAGGGC | 0.283
65 | AAGAGACA | 0.215
66 | ACCGCCCA | -0.254
67 | GCGTCTCA | -0.195
68 | CCACGGCC | -0.172
69 | AACCAAAG | -0.0122
70 | CTCAAATC | -0.0972
71 | GAACTCTA | 0.0626
72 | CGTTGGGC | -0.0257
73 | GGAGCGAC | -0.0839
74 | AGGCTGAT | -0.138
75 | GCTCCCCC | -0.392

Row | Sequence | PBM E-score
76 | CCAAAAAA | 0.18
77 | ACCACATA | 0.00668
78 | GTGATCTA | 0.193
79 | CATACGTA | 0.0697
80 | ACGCATCG | -0.187
81 | CTCTTTAA | -0.0133
82 | ATAACTCA | 0.119
83 | GAACGTAC | -0.102
84 | TCAATTAA | 0.0617
85 | GGGCATAA | 0.109
86 | ACTCTTGA | -0.196
87 | AGGGTAAG | 0.0808
88 | AGATGAAT | -0.0467
89 | TAAACGCA | -0.0522
90 | CCGGACTA | -0.105
91 | TCCCACGA | 0.091
92 | GCTAGGTA | -0.0549
93 | AGGCTTAC | -0.137
94 | AAAAACGT | -0.154
95 | CGGCATAC | -0.0738
96 | AAGTTGTG | 0.107
97 | CACACGAC | -0.0301
98 | AACAAATA | 0.247
99 | ATTACACG | 0.00432
100 | GGTGTCAA | 0.0264

Row | Sequence | PBM E-score
101 | GAACTTCA | -0.00682
102 | GAGATAGC | 0.0185
103 | AGTGCCGA | 0.0305
104 | CCCGCTAG | 0.0237
105 | CAGAGTTC | 0.0203
106 | CGCCTCAC | -0.0792
107 | GCTAAAAC | -0.00797
108 | TAGCGTAA | 0.0151
109 | AGGACGGG | -0.311
110 | CCTGACGA | 0.204
111 | CGCCCTTC | -0.0852
112 | CTAGCCTA | -0.126
113 | GGTACAAC | 0.163
114 | AGTATTGC | -0.0277
115 | CTCTGCGC | 0.0206
116 | CCCTCTCG | -0.231
117 | CCAGGCAC | -0.0452
118 | CTCATTGC | 0.0644
119 | GAATTTCA | -0.0968
120 | AGCCTCCA | -0.243
121 | ATTAGATA | 0.0113
122 | TTCGGAAA | 0.00835
123 | CAACCAAC | 0.00033
124 | GGGTCAAC | 0.213
125 | TGAGGGCA | -0.0513

Row | Sequence | PBM E-score
126 | ACATCTAC | 0.0746
127 | GGGTTCGA | 0.225
128 | ATTCCTTG | -0.0911
129 | TCCTACCA | -0.0696
130 | GCAGTTAA | 0.0619
131 | GAAGGAAA | -0.238
132 | ATTAGGGC | -0.043
133 | AATATCCC | 0.0682
134 | ATTGAACC | 0.112
135 | CAAATGCG | 0.268
136 | CATCGTTC | -0.103
137 | AACGTCAG | -0.0974
138 | AGCCGCAC | -0.0483
139 | AACGCTGT | -0.06
140 | CCTTCGCC | -0.31
141 | ATGCTCAC | -0.206
142 | ACATCTCC | 0.0552
143 | ATTCGCGG | 0.207
144 | AAGTCTAA | -0.0964
145 | TCTCATAA | 0.0223
146 | TGTAGAAA | -0.0291
147 | CGGGTCGC | -0.0689
148 | TAGGTAAA | -0.256
149 | CAATTTAG | 0.104
150 | AGCTTCCC | -0.151

Row | Sequence | PBM E-score
151 | AACCACTT | -0.03
152 | TGCTACAA | 0.0879
153 | CATACAAC | 0.0674
154 | CCCCTCAG | -0.159
155 | AACCTGGA | -0.00995
156 | CTCCTACA | -0.0788
157 | CCGGATTC | -0.0118
158 | CTTAATGC | 0.0153
159 | AAACGGTG | -0.14
160 | AAACAATT | 0.137
161 | TACGCCCA | -0.0499
162 | CATCCTTC | -0.113
163 | CGGTATAG | -0.0787
164 | ACAAACCC | -0.00861
165 | CACCGGAG | -0.176
166 | AGGGGAGC | -0.143
167 | AACAATAT | 0.266
168 | GGACGGCC | -0.0271
169 | CTAATTAA | -0.0653
170 | CAGCTCGA | 0.113
171 | AAGTTGTC | 0.174
172 | AGTCGCCG | 0.0548
173 | AAAATTCT | -0.13
174 | GAAATCAC | 0.14
175 | CGGGGATC | -0.041

Row | Sequence | PBM E-score
176 | CTGTTCCC | -0.0599
177 | AGTACACG | -0.0994
178 | GACGCGTA | 0.168
179 | GCTGATTA | 0.109
180 | AGAAACGG | 0.00701
181 | CATACTAC | 0.151
182 | GGTAACAA | 0.144
183 | TACCTGCA | -0.0327
184 | ACCCCGCT | 0.103
185 | CACTCGGA | 0.147
186 | GATAGATC | -0.0671
187 | GAGAAAGC | 0.0912
188 | CCAGTTGA | 0.0187
189 | AACCACGT | -0.165
190 | ACTCCTGA | 0.0304
191 | TAAGTGCA | 0.0499
192 | ATGTGGTC | 0.00614
193 | AATCATAA | -0.0592
194 | ACCCAAAT | 0.0414
195 | GATAGGGA | -0.0217
196 | AGACACTA | 0.079
197 | CCGCTACC | 0.135
198 | ATTCCAAG | 0.11
199 | ATGTCCCA | -0.0945
200 | GGATGCTA | -0.0274

Row | Sequence | PBM E-score
201 | CACTTGTA | 0.0667
202 | CTGAGCTA | -0.0962
203 | ACTTTTCG | 0.126
204 | TTAGAAAA | -0.166
205 | TAACTGAA | 0.0417
206 | ACCACGGA | -0.229
207 | GCAGTGCA | -0.0476
208 | GTGCGCGA | -0.042
209 | CACACAAA | 0.165
210 | AGAGGCAC | 0.0312
211 | CAGTTCAC | 0.0554
212 | ATTAACAG | 0.111
213 | ATATTGTG | 0.133
214 | GTATGGCA | 0.0816
215 | GTCAGCTA | -0.185
216 | CAGTATCA | -0.0774
217 | ATGCCACG | -0.0251
218 | GACAGTCC | -0.174
219 | ACGACAAG | 0.0805
